Source: PubChem BioAssay AID2417 (National Center for Advancing Translational Sciences (NCATS), 2010)
Out of some 140,000 compounds screened, about 4,300 (3.1%) were called active. The inconclusive results got no clear call from the source; some entries with a clear call stand among them for comparison.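 The calls were made as follows: active = readout at or below -70, meaning at least 70% loss of cells showing the perinucleolar compartment, a nuclear body marking cancer cells; inconclusive = readout between -30 and a set limit; inactive = the rest.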

Test: High Content Assay for Compounds that inhibit the Assembly of the Perinucleolar Compartment;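 also: plate controls were DMSO wells for no effect and camptothecin positive control wells for full effect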
Conditions: PC3M PTB-GFP, PNC prevalence imaging, 16 h; at 10 µM; stronger effect = lower value
Method in brief: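 Compounds are pinned in duplicate onto adhered PC3M cells stably expressing GFP-tagged PTB and incubated 16 h at 37 C. Cells are then fixed, nuclei stained with Hoechst, and PNC-positive cells counted.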
With `O=C(O)CCn1c(=O)c2ccccc2c2ccccc2c1=O` the activity change (PNC), negative = inhibition was inactive: 16.7%.
With `Cc1ccccc1CN1C(=O)CSc2ccc(C(=O)N3CCOCC3)cc21` the activity change (PNC), negative = inhibition was inconclusive: -37.6%.
With `Cc1nn(S(=O)(=O)c2ccccc2)c(C)c1Sc1ccc([N+](=O)[O-])cc1` the activity change (PNC), negative = inhibition was inconclusive: -57.4%.
For `COc1ccc(OCC(=O)Nn2c(-c3ccc(OC)cc3)nc3ccccc3c2=O)cc1`, the activity change (PNC), negative = inhibition was inconclusive: -62.5%.
With `CC1=NN(c2ccccc2)C(=O)C1` the activity change (PNC), negative = inhibition was inactive: 13.8%.
For `COc1ccc(C(=O)CSc2nncn2C)cc1`, the activity change (PNC), negative = inhibition was inactive: 13.5%.
For `CC(=O)c1c(N2CCOCC2)nc(=S)n(-c2ccc([N+](=O)[O-])cc2)c1C`, the activity change (PNC), negative = inhibition was active: -113%.
For `O=C(/C=C/c1cccc(F)c1)Nc1cc(S(=O)(=O)N2CCOCC2)ccc1N1CCCC1`, the activity change (PNC), negative = inhibition was inactive: -11.1%.
For `COc1ccc(S(=O)(=O)N2CCC(C(=O)N3CCc4ccccc4C3)CC2)cc1OC`, the activity change (PNC), negative = inhibition was active: -84.1%.
For `COc1ccc(/C=N\NC(=O)COc2ccccc2)c(C(=O)O)c1OC`, the activity change (PNC), negative = inhibition was inconclusive: -36.2%.
For `Cc1cc(C)nc(-n2nc(C)c3c(C(F)F)cc(C)nc32)n1`, the activity change (PNC), negative = inhibition was inconclusive: -33.3%.
With `O=C(CSc1nnc(CNC(=O)c2ccco2)o1)c1ccccc1` the activity change (PNC), negative = inhibition was inactive: 30.9%.
For `COCCN(CCOC)S(=O)(=O)c1ccc(C(=O)Nc2sc3c(c2C(N)=O)CCCCC3)cc1`, the activity change (PNC), negative = inhibition was active: -119%.
With `COc1cc([C@H]2[C@@H]3CCCC[C@]3(O)CCN2CC(=O)Nc2ccc(C)cc2)ccc1O` the activity change (PNC), negative = inhibition was active: -100%.
For `O=C(/C=C/c1ccccc1)NNC(=O)c1cccc(Cl)c1`, the activity change (PNC), negative = inhibition was inconclusive: -33.1%.
For `Cc1cc(C)cc(Oc2nc(-c3ccccc3)cc(C)c2S(C)(=O)=O)c1`, the activity change (PNC), negative = inhibition was active: -112%.
For `O=C(COc1ncnc2c(Cl)cc(Cl)cc12)Nc1cc([N+](=O)[O-])ccc1Cl`, the activity change (PNC), negative = inhibition was inactive: 25.2%.
In the case of `Cc1ccc(N=Cc2sc(O)c3ccccc23)cc1`, the activity change (PNC), negative = inhibition is reported as inconclusive: -50.6%.
In the case of `O=C(NCc1ccccc1Cl)c1csc2c1CCCCC2`, the activity change (PNC), negative = inhibition is reported as inconclusive: -54.6%.
For `CC(CCc1ccccc1)NC(=O)COC(=O)c1cc(NS(=O)(=O)c2ccc(Cl)c([N+](=O)[O-])c2)ccc1O` (configuration not stated), the activity change (PNC), negative = inhibition was inconclusive: -49.3%.
With `S=C(Nc1ccc(Oc2ccc(NC(=S)NC3CCCCC3)cc2)cc1)NC1CCCCC1` the activity change (PNC), negative = inhibition was inconclusive: -60.2%.
In the case of `CC(=O)C1=C(C)NC(C)=C(C(C)=O)C1c1cccs1`, the activity change (PNC), negative = inhibition is reported as inconclusive: -71.8%.
For `Cn1c(-c2ccc(-c3ccccc3)cc2)c[nH]c1=S`, the activity change (PNC), negative = inhibition was inactive: 16.4%.
With `COC(=O)c1ccc(CSc2nc3cc(Cl)ccc3o2)cc1` the activity change (PNC), negative = inhibition was inconclusive: -65.3%.
In the case of `COc1cc(C(=O)CSc2nncn2C)cc(OC)c1OC`, the activity change (PNC), negative = inhibition is reported as active: -111%.
In the case of `CCNC(=S)Nc1ccc(Cl)c(C(F)(F)F)c1`, the activity change (PNC), negative = inhibition is reported as inactive: -5.06%.
In the case of `CSC1=C(C#N)C(c2ccccc2Cl)C(C(=O)c2cccs2)C(O)(C(F)(F)F)N1` (configuration not stated), the activity change (PNC), negative = inhibition is reported as inconclusive: -76.4%.
With `Cc1ccc(-c2cc(=O)c3cc(F)ccc3[nH]2)cc1` the activity change (PNC), negative = inhibition was inconclusive: -60.4%.
In the case of `N#C/C(=C\c1ccc2c(c1)OCCO2)C(=O)NC1CCCCC1`, the activity change (PNC), negative = inhibition is reported as inactive: 2.46%.
With `CCOC(=O)C(Cc1c[nH]c2ccccc12)NC(=O)CNC(C)=O` (configuration not stated) the activity change (PNC), negative = inhibition was inconclusive: -46.4%.
With `COc1ccc(S(=O)(=O)N2CCCC(C(=O)NC3CCCCC3)C2)cc1` (configuration not stated) the activity change (PNC), negative = inhibition was active: -102%.
In the case of `COc1ccc2c(c1OC)C(=O)c1ccccc1C2=O`, the activity change (PNC), negative = inhibition is reported as inconclusive: -46.5%.
For `COC(=O)C1(C(F)(F)F)N=C2Sc3ccccc3N2C(N2CCOCC2)=N1` (configuration not stated), the activity change (PNC), negative = inhibition was inconclusive: -33.6%.
For `CCC(=O)N1CCN(c2nc(C)nc3sc(C)c(C)c23)CC1`, the activity change (PNC), negative = inhibition was inactive: 48.1%.
In the case of `COCCn1cc(C(=O)N2CCC(C)CC2)c2c3ccccc3n(C)c2c1=O`, the activity change (PNC), negative = inhibition is reported as inconclusive: -37.6%.
With `O=c1/c(=C\c2ccc3c(c2)OCO3)sc2n1CCCN=2` the activity change (PNC), negative = inhibition was inactive: 19.5%.
For `O=C(CN1CCN(S(=O)(=O)c2ccc(Br)cc2)CC1)Nc1ccc(F)cc1F`, the activity change (PNC), negative = inhibition was inconclusive: -55.1%.
With `Cc1ccccc1-c1nc(S(=O)(=O)c2ccc(Br)cc2)c(NCc2cccnc2)o1` the activity change (PNC), negative = inhibition was inactive: 42.3%.
In the case of `O=C(CN(c1cccc(C(F)(F)F)c1)S(=O)(=O)c1ccccc1)N1CCOCC1`, the activity change (PNC), negative = inhibition is reported as inconclusive: -67.7%.
In the case of `CCOc1cc(N2CCOCC2)c(OCC)cc1NC(=O)CN1CCCC1`, the activity change (PNC), negative = inhibition is reported as inconclusive: -66.1%.
In the case of `COc1ccc(OCC(=O)Nc2cccc(NC(=O)COc3ccc(OC)cc3)n2)cc1`, the activity change (PNC), negative = inhibition is reported as inconclusive: -78.7%.
With `O=C(CCCN1C(=O)c2ccccc2C1=O)Nc1ccccn1` the activity change (PNC), negative = inhibition was inconclusive: -40.7%.
In the case of `O=C(O)c1cc2c(s1)-c1ccccc1OC2`, the activity change (PNC), negative = inhibition is reported as inconclusive: -60.9%.
In the case of `CCOC(=O)c1csc(NC(=O)COc2ccc(Cl)cc2Cl)n1`, the activity change (PNC), negative = inhibition is reported as inconclusive: -34.7%.
With `Cc1ccc(S(=O)(=O)n2nc(-c3cccnc3)nc2N)cc1` the activity change (PNC), negative = inhibition was inconclusive: -36.8%.
For `CCOC(=O)c1oc2ccccc2c1NC(=O)CN1CCN(C)CC1`, the activity change (PNC), negative = inhibition was inconclusive: -61.3%.
For `Cc1[nH]c2ccccc2c1Cc1nnc(SCCC#N)o1`, the activity change (PNC), negative = inhibition was active: -100%.
With `O=c1oc2ccccc2n1CCn1c2ccccc2c2nc3ccccc3nc21` the activity change (PNC), negative = inhibition was inconclusive: -36.8%.
With `COc1ccc(C(c2nnnn2Cc2ccccc2)N2CCN(c3nc4ccccc4s3)CC2)cc1OC` (configuration not stated) the activity change (PNC), negative = inhibition was inactive: -2.12%.
For `Cc1sc(NC(=O)C2C3CCC(C3)C2C(=O)O)c(C(N)=O)c1-c1ccc(C(C)(C)C)cc1` (configuration not stated), the activity change (PNC), negative = inhibition was inconclusive: -32.1%.
For `Cc1noc(C)c1COc1cccc(C(=O)NCc2ccccc2Cl)c1`, the activity change (PNC), negative = inhibition was inconclusive: -66.1%.
In the case of `CCN(CC)c1ccc2cc(-c3nnc(-c4ccncc4)o3)c(=O)oc2c1`, the activity change (PNC), negative = inhibition is reported as active: -119%.
In the case of `CCC/C=N/NC(=O)c1[nH]c2c([N+](=O)[O-])cccc2c1C`, the activity change (PNC), negative = inhibition is reported as active: -113%.
For `CC(=O)NCCOc1nc(N(C)C)nc(N(C)C)n1`, the activity change (PNC), negative = inhibition was inconclusive: -61.4%.
In the case of `Cc1cccc(N(CC(=O)NCCC2=CCCCC2)S(C)(=O)=O)c1C`, the activity change (PNC), negative = inhibition is reported as inconclusive: -51.9%.
In the case of `CNC(=O)CSc1nc2nc(C)cc(C)n2n1`, the activity change (PNC), negative = inhibition is reported as inactive: -11.4%.
With `COc1ccc(N(CC(=O)O)S(=O)(=O)c2cccnc2)cc1` the activity change (PNC), negative = inhibition was inconclusive: -49.4%.
